# Assay results taken from the supplement of paper PMC8728848.
# The other results are listed elsewhere or left out.
# B1: HA-00510 (Pseudomonas aeruginosa), Q02V39_PSEAB (protein)
# chain: GVPIVNIATPNGAGLSNNHFRDYNVGANGLILNNATGKTQGTQLGGIILGNPNLKGQAAQVILNQVTGGNRSTLAGYTEVAGQSARVIVANPHGITCQGCGFINTPRATLTTGKPIMDGQRLERFQVDGGDIVVEGAELNVGNLEQFDLITRSAKLNAKLYAKNLNIVTGRNDVQADSLQATPRAADGSEKPQLAIDSSALGGMYAGAIRLVGTEQGVGVKLAGDMAASGGDIRIDASGKLSLAQASSQGDLKIAAQAVELNGKTYAGGSAEIRSAEELVNRQS
# Columns and labels:
# Assay in all cases: glycan array binding signal (z-score within array); higher = stronger binding
# Settings in all cases: glycan notation: IUPAC condensed, linker removed
# [1] = molecular target: Neu5Ac(a2-3)Gal(b1-3)GlcNAc
# Outline: (§1)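 Glycan array binding is given as a within-array Z-score, which can be read as non-binding when negative. The arrays, 3228 of them, came from the Consortium for Functional Glycomics database and were retained only where the protein sequence was available. Z-scores were averaged across arrays of the same protein sequence at different concentrations or buffers and across linkers.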
# [2] = molecular target: Neu5Ac(a2-3)Gal(b1-3)GlcNAc(b1-2)Man
# Outline: as §1
# [3] = molecular target: Neu5Ac(a2-3)Gal(b1-3)GlcNAc(b1-2)Man(a1-3)[GlcNAc(b1-4)][Neu5Ac(a2-3)Gal(b1-3)GlcNAc(b1-2)Man(a1-6)]Man(b1-4)GlcNAc(b1-4)GlcNAc
# Outline: as §1
# [4] = molecular target: Neu5Ac(a2-3)Gal(b1-3)GlcNAc(b1-2)Man(a1-3)[Neu5Ac(a2-3)Gal(b1-3)GlcNAc(b1-2)Man(a1-6)]Man(b1-4)GlcNAc(b1-4)GlcNAc
# Outline: as §1
# [5] = molecular target: Neu5Ac(a2-3)Gal(b1-3)GlcNAc(b1-2)[Neu5Ac(a2-3)Gal(b1-3)GlcNAc(b1-4)]Man(a1-6)[Neu5Ac(a2-3)Gal(b1-3)GlcNAc(b1-2)Man(a1-3)]Man(b1-4)GlcNAc(b1-4)GlcNAc
# Outline: as §1
# [6] = molecular target: Neu5Ac(a2-3)Gal(b1-3)GlcNAc(b1-3)Gal(b1-3)GlcNAc
# Outline: as §1
# [7] = molecular target: Neu5Ac(a2-3)Gal(b1-3)GlcNAc(b1-3)Gal(b1-4)GlcNAc
# Outline: as §1
# [8] = molecular target: Neu5Ac(a2-3)Gal(b1-3)GlcNAc(b1-3)GalNAc
# Outline: as §1
# [9] = molecular target: Neu5Ac(a2-3)Gal(b1-3)GlcNAc(b1-6)GalNAc
# Outline: as §1
# [10] = molecular target: Neu5Ac(a2-3)Gal(b1-3)GlcNAc6S
# Outline: as §1
# [11] = molecular target: Neu5Ac(a2-3)Gal(b1-3)[Fuc(a1-4)]GlcNAc
# Outline: as §1
# [12] = molecular target: Neu5Ac(a2-3)Gal(b1-3)[Fuc(a1-4)]GlcNAc(b1-3)Gal(b1-3)[Fuc(a1-4)]GlcNAc
# Outline: as §1
# [13] = molecular target: Neu5Ac(a2-3)Gal(b1-3)[Fuc(a1-4)]GlcNAc(b1-3)Gal(b1-4)[Fuc(a1-3)]GlcNAc
# Outline: as §1
# [14] = molecular target: Neu5Ac(a2-3)Gal(b1-3)[GlcNAc(b1-6)]GalNAc
# Outline: as §1
# [15] = molecular target: Neu5Ac(a2-3)Gal(b1-3)[Neu5Ac(a2-6)]GalNAc
# Outline: as §1
# [16] = molecular target: Neu5Ac(a2-3)Gal(b1-3)[Neu5Ac(a2-6)]GlcNAc(b1-3)[Fuc(a1-3)[Gal(b1-4)]GlcNAc(b1-6)]Gal(b1-4)Glc
# Outline: as §1
# [17] = molecular target: Neu5Ac(a2-3)Gal(b1-3)]Neu5Ac(a2-3)Gal(b1-4)]GlcNAc
# Outline: as §1
# Neu5Ac(a2-3)Gal(b1-4)Glc = molecular target: Neu5Ac(a2-3)Gal(b1-4)Glc
# Outline: as §1
# [18] = molecular target: Neu5Ac(a2-3)Gal(b1-4)GlcNAc
# Outline: as §1
# [19] = molecular target: Neu5Ac(a2-3)Gal(b1-4)GlcNAc(b1-2)Man
# Outline: as §1
# [20] = molecular target: Neu5Ac(a2-3)Gal(b1-4)GlcNAc(b1-2)Man(a1-3)[GlcNAc(b1-4)][Neu5Ac(a2-3)Gal(b1-4)GlcNAc(b1-2)Man(a1-6)]Man(b1-4)GlcNAc(b1-4)GlcNAc
# Outline: as §1
# [21] = molecular target: Neu5Ac(a2-3)Gal(b1-4)GlcNAc(b1-2)Man(a1-3)[Neu5Ac(a2-3)Gal(b1-4)GlcNAc(b1-2)Man(a1-6)]Man(b1-4)GlcNAc(b1-4)GlcNAc
# Outline: as §1
# [22] = molecular target: Neu5Ac(a2-3)Gal(b1-4)GlcNAc(b1-2)Man(a1-3)[Neu5Ac(a2-3)Gal(b1-4)GlcNAc(b1-2)Man(a1-6)]Man(b1-4)GlcNAc(b1-4)[Fuc(a1-6)]GlcNAc
# Outline: as §1
# [23] = molecular target: Neu5Ac(a2-3)Gal(b1-4)GlcNAc(b1-2)Man(a1-3)[Neu5Ac(a2-6)Gal(b1-4)GlcNAc(b1-2)Man(a1-6)]Man(b1-4)GlcNAc(b1-4)GlcNAc
# Outline: as §1
# [24] = molecular target: Neu5Ac(a2-3)Gal(b1-4)GlcNAc(b1-2)[Neu5Ac(a2-3)Gal(b1-4)GlcNAc(b1-4)]Man(a1-3)[GlcNAc(b1-4)][Neu5Ac(a2-3)Gal(b1-4)GlcNAc(b1-2)[Neu5Ac(a2-3)Gal(b1-4)GlcNAc(b1-6)]Man(a1-6)]Man(b1-4)GlcNAc(b1-4)GlcNAc
# Outline: as §1
# [25] = molecular target: Neu5Ac(a2-3)Gal(b1-4)GlcNAc(b1-2)[Neu5Ac(a2-3)Gal(b1-4)GlcNAc(b1-4)]Man(a1-3)[GlcNAc(b1-4)][Neu5Ac(a2-3)Gal(b1-4)GlcNAc(b1-4)Man(a1-6)]Man(b1-4)GlcNAc(b1-4)GlcNAc
# Outline: as §1
# [26] = molecular target: Neu5Ac(a2-3)Gal(b1-4)GlcNAc(b1-2)[Neu5Ac(a2-3)Gal(b1-4)GlcNAc(b1-6)]Man(a1-6)[Neu5Ac(a2-3)Gal(b1-4)GlcNAc(b1-2)Man(a1-3)][GlcNAc(b1-4)]Man(b1-4)GlcNAc(b1-4)GlcNAc
# Outline: as §1
# [27] = molecular target: Neu5Ac(a2-3)Gal(b1-4)GlcNAc(b1-3)Gal
# Outline: as §1
# [28] = molecular target: Neu5Ac(a2-3)Gal(b1-4)GlcNAc(b1-3)Gal(b1-3)GlcNAc
# Outline: as §1
# [29] = molecular target: Neu5Ac(a2-3)Gal(b1-4)GlcNAc(b1-3)Gal(b1-4)GlcNAc
# Outline: as §1
# [30] = molecular target: Neu5Ac(a2-3)Gal(b1-4)GlcNAc(b1-3)Gal(b1-4)GlcNAc(b1-2)Man(a1-3)[Neu5Ac(a2-3)Gal(b1-4)GlcNAc(b1-3)Gal(b1-4)GlcNAc(b1-2)Man(a1-6)]Man(b1-4)GlcNAc(b1-4)GlcNAc
# Outline: as §1
# [31] = molecular target: Neu5Ac(a2-3)Gal(b1-4)GlcNAc(b1-3)Gal(b1-4)GlcNAc(b1-3)Gal(b1-4)GlcNAc
# Outline: as §1
# [32] = molecular target: Neu5Ac(a2-3)Gal(b1-4)GlcNAc(b1-3)Gal(b1-4)GlcNAc(b1-3)Gal(b1-4)GlcNAc(b1-2)Man(a1-3)[Neu5Ac(a2-3)Gal(b1-4)GlcNAc(b1-3)Gal(b1-4)GlcNAc(b1-3)Gal(b1-4)GlcNAc(b1-2)Man(a1-6)]GalNAc
# Outline: as §1
# [33] = molecular target: Neu5Ac(a2-3)Gal(b1-4)GlcNAc(b1-3)Gal(b1-4)GlcNAc(b1-3)GalNAc
# Outline: as §1
# [34] = molecular target: Neu5Ac(a2-3)Gal(b1-4)GlcNAc(b1-3)Gal(b1-4)GlcNAc(b1-3)[Neu5Ac(a2-3)Gal(b1-4)GlcNAc(b1-3)Gal(b1-4)GlcNAc(b1-6)]GalNAc
# Outline: as §1
# [35] = molecular target: Neu5Ac(a2-3)Gal(b1-4)GlcNAc(b1-3)Gal(b1-4)GlcNAc(b1-6)[Gal(b1-3)]GalNAc
# Outline: as §1
# [36] = molecular target: Neu5Ac(a2-3)Gal(b1-4)GlcNAc(b1-3)Gal(b1-4)[Fuc(a1-3)]GlcNAc
# Outline: as §1
# [37] = molecular target: Neu5Ac(a2-3)Gal(b1-4)GlcNAc(b1-3)GalNAc
# Outline: as §1
binder,measurement,setting,value
B1,glycan array binding signal (z-score),[1],0.098
same,glycan array binding signal (z-score),[2],-0.852
same,glycan array binding signal (z-score),[3],-0.136
same,glycan array binding signal (z-score),[4],-0.642
same,glycan array binding signal (z-score),[5],0.759
same,glycan array binding signal (z-score),[6],-1.16
same,glycan array binding signal (z-score),[7],-1.13
same,glycan array binding signal (z-score),[8],0.479
same,glycan array binding signal (z-score),[9],-0.621
same,glycan array binding signal (z-score),[10],-0.526
same,glycan array binding signal (z-score),[11],-0.027
same,glycan array binding signal (z-score),[12],-0.302
same,glycan array binding signal (z-score),[13],-0.574
same,glycan array binding signal (z-score),[14],-0.796
same,glycan array binding signal (z-score),[15],0.187
same,glycan array binding signal (z-score),[16],1.21
same,glycan array binding signal (z-score),[17],0.238
same,glycan array binding signal (z-score),Neu5Ac(a2-3)Gal(b1-4)Glc,0.867
same,glycan array binding signal (z-score),[18],-0.549
same,glycan array binding signal (z-score),[19],1.18
same,glycan array binding signal (z-score),[20],0.029
same,glycan array binding signal (z-score),[21],1.19
same,glycan array binding signal (z-score),[22],0.601
same,glycan array binding signal (z-score),[23],0.265
same,glycan array binding signal (z-score),[24],0.048
same,glycan array binding signal (z-score),[25],0.115
same,glycan array binding signal (z-score),[26],-0.318
same,glycan array binding signal (z-score),[27],0.339
same,glycan array binding signal (z-score),[28],-0.886
same,glycan array binding signal (z-score),[29],0.193
same,glycan array binding signal (z-score),[30],0.962
same,glycan array binding signal (z-score),[31],-0.41
same,glycan array binding signal (z-score),[32],3.77
same,glycan array binding signal (z-score),[33],-0.205
same,glycan array binding signal (z-score),[34],-0.447
same,glycan array binding signal (z-score),[35],-0.893
same,glycan array binding signal (z-score),[36],-0.182
same,glycan array binding signal (z-score),[37],0.71

# Shown with bars between the fields: part of the list above
binder | measurement | setting | value
B1 | glycan array binding signal (z-score) | [14] | -0.796
same | glycan array binding signal (z-score) | [18] | -0.549
